Results: publication PMC4481404
No constants are given. Whether binding was seen depends on the method and setting. Binding seen in cells or lysates may run through a third protein. Binding can be weak; no strength is given. Sequences can lack the tags named with a protein.

Target: T1, Wnt8-Myc (UniProt P28026)
T1 sequence: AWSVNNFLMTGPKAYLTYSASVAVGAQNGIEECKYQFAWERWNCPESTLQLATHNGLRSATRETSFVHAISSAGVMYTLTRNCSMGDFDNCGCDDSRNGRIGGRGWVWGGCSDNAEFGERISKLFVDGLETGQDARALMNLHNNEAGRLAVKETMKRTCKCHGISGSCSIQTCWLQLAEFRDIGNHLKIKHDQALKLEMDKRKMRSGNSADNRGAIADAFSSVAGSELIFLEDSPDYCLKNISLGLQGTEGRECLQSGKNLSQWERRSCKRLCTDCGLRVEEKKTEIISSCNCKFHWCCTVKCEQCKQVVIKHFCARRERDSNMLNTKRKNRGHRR
Assay: co-IP; tagged mRNAs (1 ng each) injected into two-cell X. laevis embryos, harvested at stage 10.5; lysis in PBS with 1% Triton X-100 and protease inhibitors; protein G-sepharose bound with anti-c-Myc or anti-HA antibody (Fig. 8a: anti-Myc IP); Western blot

binding: binds
Substance: Insulin3-HA (X. laevis)
